PubChem BioAssay AID743121, NCATS, 2013

- Screen: 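Knock-downs that sensitise breast cancer cells to camptothecin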 (primary screen)
- Cell system: MDA-MB-231 cells, a human breast cancer line
- Knock-down reagent: single siRNA against human genes, 20 nM siRNA (0.8 pmol per well)
- Duration: 120 h (drug added 48 h after transfection, read 72 h later)
- Conditions: camptothecin 20 nM (about EC30) for 72 h; vehicle 0.1% DMSO in parallel plates
- Read-out: 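CellTiter-Glo ATP signal, scaled to control siRNA as percent viability; sensitisation given as log2 of untreated divided by camptothecin-treated viability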
- Reading the numbers: log2 vehicle/camptothecin viability: higher = stronger sensitisation to camptothecin; viability with camptothecin and viability without drug: higher = more viable cells
- Hit rule: 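Each gene scored by redundant siRNA activity (RSA) over its individual siRNA ratios; a gene is called active at p < 0.001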
The deposit covers about 26,000 reagents; shown is a random part of them. Over the whole deposit, 167 (0.63%) are marked active. 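Calls are per gene from RSA p-values that are not deposited; an individual active-marked siRNA can sensitise only weakly.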 The numbers tell different reagents against one gene apart. No sequences are given here.

gene | siRNA no. | log2 vehicle/camptothecin viability | viability with camptothecin (% of control) | viability without drug (% of control) | outcome
RAB25 (RAB25, member RAS oncogene family) | 1 | -0.174 | 87.4 | 77.5 | inactive
RAB25 (RAB25, member RAS oncogene family) | 2 | -0.0735 | 85.2 | 81 | inactive
RAB25 (RAB25, member RAS oncogene family) | 3 | -0.0755 | 63 | 59.8 | inactive
RAB25 (RAB25, member RAS oncogene family) | 4 | -0.165 | 47.2 | 42.1 | inactive
TMX3 (thioredoxin related transmembrane protein 3) | 1 | -0.232 | 130 | 110 | inactive
TMX3 (thioredoxin related transmembrane protein 3) | 2 | 0.042 | 66.2 | 68.2 | inactive
TMX3 (thioredoxin related transmembrane protein 3) | 3 | 0.0538 | 92.5 | 96 | inactive
TMX3 (thioredoxin related transmembrane protein 3) | 4 | 0.0733 | 78.9 | 83.1 | inactive
RHOA (ras homolog family member A) | 1 | -0.745 | 82.4 | 49.2 | inactive
RHOA (ras homolog family member A) | 2 | -0.266 | 32 | 26.6 | inactive
RHOA (ras homolog family member A) | 3 | -0.473 | 26.4 | 19 | inactive
HEG1 (heart development protein with EGF like domains 1) | 1 | -0.422 | 70.4 | 52.6 | inactive
HEG1 (heart development protein with EGF like domains 1) | 2 | 0.206 | 63.7 | 73.5 | inactive
HEG1 (heart development protein with EGF like domains 1) | 3 | -0.303 | 94.3 | 76.4 | inactive
HEG1 (heart development protein with EGF like domains 1) | 4 | -0.307 | 71.7 | 58 | inactive
SH3GL1 (SH3 domain containing GRB2 like 1, endophilin A2) | 1 | 0.0321 | 75.5 | 77.2 | inactive
SH3GL1 (SH3 domain containing GRB2 like 1, endophilin A2) | 2 | -0.211 | 37.8 | 32.6 | inactive
SH3GL1 (SH3 domain containing GRB2 like 1, endophilin A2) | 3 | -0.222 | 100 | 86.1 | inactive
SH3GL1 (SH3 domain containing GRB2 like 1, endophilin A2) | 4 | -0.341 | 58.7 | 46.3 | inactive
RAB32 (RAB32, member RAS oncogene family) | 1 | -0.169 | 111 | 98.3 | inactive
RAB32 (RAB32, member RAS oncogene family) | 2 | -0.34 | 69.4 | 54.8 | inactive
RAB32 (RAB32, member RAS oncogene family) | 3 | -0.162 | 112 | 100 | inactive
RAB32 (RAB32, member RAS oncogene family) | 4 | -0.576 | 76.2 | 51.1 | inactive
PAG1 | 1 | -0.177 | 94.4 | 83.5 | inactive
PAG1 | 2 | -0.265 | 97.3 | 81 | inactive
PAG1 | 3 | -0.385 | 75.5 | 57.8 | inactive
PTTG1IP (PTTG1 interacting protein) | 1 | -0.131 | 68.8 | 62.8 | inactive
PTTG1IP (PTTG1 interacting protein) | 2 | -0.0585 | 89 | 85.4 | inactive
PTTG1IP (PTTG1 interacting protein) | 3 | -0.491 | 74.5 | 53 | inactive
PTTG1IP (PTTG1 interacting protein) | 4 | -0.0962 | 91.5 | 85.6 | inactive
FBXW2 (F-box and WD repeat domain containing 2) | 1 | -0.512 | 83.8 | 58.8 | inactive
FBXW2 (F-box and WD repeat domain containing 2) | 2 | -0.113 | 112 | 104 | inactive
FBXW2 (F-box and WD repeat domain containing 2) | 3 | -0.397 | 86.6 | 65.8 | inactive
FBXW2 (F-box and WD repeat domain containing 2) | 4 | -0.279 | 39.3 | 32.4 | inactive
USP46 (ubiquitin specific peptidase 46) | 1 | -0.26 | 96.9 | 80.9 | inactive
USP46 (ubiquitin specific peptidase 46) | 2 | -0.265 | 80.8 | 67.3 | inactive
USP46 (ubiquitin specific peptidase 46) | 3 | -0.506 | 91.1 | 64.1 | inactive
USP46 (ubiquitin specific peptidase 46) | 4 | -0.09 | 82.5 | 77.5 | inactive
PHRF1 (PHD and ring finger domains 1) | 1 | -0.0463 | 66.2 | 64.2 | inactive
PHRF1 (PHD and ring finger domains 1) | 2 | -0.0594 | 45.4 | 43.5 | inactive
PHRF1 (PHD and ring finger domains 1) | 3 | 0.0481 | 95.4 | 98.6 | inactive
PHRF1 (PHD and ring finger domains 1) | 4 | 0.056 | 69.4 | 72.1 | inactive
CALCRL (calcitonin receptor like receptor) | 1 | -0.341 | 74.6 | 58.9 | inactive
CALCRL (calcitonin receptor like receptor) | 2 | -0.312 | 92.3 | 74.4 | inactive
CALCRL (calcitonin receptor like receptor) | 3 | -0.152 | 54.1 | 48.7 | inactive
CALCRL (calcitonin receptor like receptor) | 4 | -0.231 | 79.9 | 68.1 | inactive

Entries listed so far whose gene name starts with C or c (4):
gene | siRNA no. | log2 vehicle/camptothecin viability | viability with camptothecin (% of control) | viability without drug (% of control) | outcome
CALCRL (calcitonin receptor like receptor) | 1 | -0.341 | 74.6 | 58.9 | inactive
CALCRL (calcitonin receptor like receptor) | 2 | -0.312 | 92.3 | 74.4 | inactive
CALCRL (calcitonin receptor like receptor) | 3 | -0.152 | 54.1 | 48.7 | inactive
CALCRL (calcitonin receptor like receptor) | 4 | -0.231 | 79.9 | 68.1 | inactive
